No constants are given. Whether binding was seen depends on the method and setting. In cells and extracts the contact can be indirect. A yes stands for co-enrichment or nearness to the bait. Other partners may have been found.
Assays:
[1] = target: Rpl30-TurboID (S. cerevisiae) (UniProt P14120); assay: proximity labelling; TurboID-fused bait expressed from a centromeric CUP1-promoter plasmid in S. cerevisiae YDK11-5A; 500 μM copper sulphate and 500 μM biotin for 1 h at 30°C; biotinylated proteins purified on streptavidin agarose and identified by LC-MS/MS; enrichment against the GFP-TurboID and NLS-GFP-TurboID type controls
[2] = target: TurboID-tagged Rpl8 (both baits) (S. cerevisiae) (UniProt P17076); assay: as above

By UniProt entry, the sequences of proteins in these tests, tags left out. Where a name states a change or a piece, a line headed by the entry shows the natural chain unless it says otherwise.
UniProt P14120: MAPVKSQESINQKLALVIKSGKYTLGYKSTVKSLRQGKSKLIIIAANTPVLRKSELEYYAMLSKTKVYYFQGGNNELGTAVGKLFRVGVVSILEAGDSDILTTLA
UniProt P17076: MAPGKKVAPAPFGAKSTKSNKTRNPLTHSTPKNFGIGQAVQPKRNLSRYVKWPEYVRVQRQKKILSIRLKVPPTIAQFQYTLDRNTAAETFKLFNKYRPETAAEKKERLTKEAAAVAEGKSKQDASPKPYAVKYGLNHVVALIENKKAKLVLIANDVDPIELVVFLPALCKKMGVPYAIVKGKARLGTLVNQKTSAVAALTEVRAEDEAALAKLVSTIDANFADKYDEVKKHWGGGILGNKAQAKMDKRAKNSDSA

binding [1] | binding [2] | Binder
binds |  | Kap119 (endogenous) (protein, UniProt P46970 1-1048) MDITELLQCFACTLDHNAAVRTNAETHLKNASKVPGFLGACLDIIAADEVPENIKLSASLYFKNKITYGWSAGARQGSNELLDSHVDPDEKPVVKDMLIKTMVSVSKTSPRCIRVLKSALTVIISEDYPSKKWGNLLPNSLELLANEDITVTYVGLLCLAEIFRTYRWKNNDERQDLEELILNYFPALLNYGANVLFQDGKYMNNEQIGELVKLIIKIYKFVSYHDLPFTLQRSESFTPWACFFVSIIQQPLPQEVLAISDIEVRSKNPWVKCKKWALANLYRLFQRYASTSLTRKFQYDEFKQMYCEEFLTQFLQVVFDQIEKWGTGQLWLSDECLYYILNFVEQCVVQKTTWKLVGPHYNVILQHVIFPLLKPTAETLEAFDNDPQEYINRNMDFWDVGYSPDLAALALLTTCVTKRGKTTLQPTLEFMVSTLQSAVGDYNNIMLDNALQIESCLRIFSSIIDRLITKDSPFASEMEKFILTYVLPFFKSQYGFLQSRVCDICSKLGSMDFKDPVITSTIYEGVMNCLNNSSNSLPVELTAALALQTFISDDQFNMKLSEHVVPTMQKLLSLSNDFESDVISGVMQDFVEQFAEQLQPFGVELMNTLVQQFLKLAIDLHETSNLDPDSFTNVDSIPDESDKQMAALGILSTTISILLSFENSPEILKNLEQSFYPAAEFILKNDIEDFYRECCEFVENSTFLLRDITPISWKILELIGECNRKPDSMVSYYLSDFMLALNNILIYGRNELKKNEFYTKIIFEIYQKAVTAEDNSLDDLRVVFDLSQELVLALDDSLPQQYRERLLADVVGSILTQKNELKTNVVFSVTAFNVVISNMITEPLITLQYLKQQGCLEIFFQTWITDYIPNYKRCYDIKLSVLALLKIILKLESNDYSVLNLENLVPQLGSIVTQLASRLPTALRQLANQRKEFSSSGFEEDTKWDENFLDVGDDDENDDEGDLTEKYLELIKNRADSLDFVDGYDAKETFDDLEEDPLTGSILDTVDVYKVFKESIANLQHVDSNRYQGILRHLTPADQELFMGIMNA
 | binds | Kap123 (endogenous) (protein, UniProt P40069 1-1113) MDQQFLSQLEQTLHAITSGVGLKEATKTLQTQFYTQPTTLPALIHILQNGSDDSLKQLAGVEARKLVSKHWNAIDESTRASIKTSLLQTAFSEPKENVRHSNARVIASIGTEELDGNKWPDLVPNLIQTASGEDVQTRQTAIFILFSLLEDFTSSLSGHIDDFLALFSQTINDPSSLEIRSLSAQALNHVSALIEEQETINPVQAQKFAASIPSVVNVLDAVIKADDTMNAKLIFNCLNDFLLLDSQLTGNFIVDLIKLSLQIAVNSEIDEDVRVFALQFIISSLSYRKSKVSQSKLGPEITVAALKVACEEIDVDDELNNEDETGENEENTPSSSAIRLLAFASSELPPSQVASVIVEHIPAMLQSANVFERRAILLAISVAVTGSPDYILSQFDKIIPATINGLKDTEPIVKLAALKCIHQLTTDLQDEVAKFHEEYLPLIIDIIDSAKNIVIYNYATVALDGLLEFIAYDAIAKYLDPLMNKLFYMLESNESSKLRCAVVSAIGSAAFAAGSAFIPYFKTSVHYLEKFIQNCSQIEGMSEDDIELRANTFENISTMARAVRSDAFAEFAEPLVNSAYEAIKTDSARLRESGYAFIANLAKVYGENFAPFLKTILPEIFKTLELDEYQFNFDGDAEDLAAFADSANEEELQNKFTVNTGISYEKEVASAALSELALGTKEHFLPYVEQSLKVLNEQVDESYGLRETALNTIWNVVKSVLLASKVEPESYPKGIPASSYVNADVLAVIQAARETSMGNLSDEFETSMVITVMEDFANMIKQFGAIIIMDNGDSSMLEALCMQVLSVLKGTHTCQTIDIEEDVPRDEELDASETEATLQDVALEVLVSLSQALAGDFAKVFDNFRPVVFGLFQSKSKNKRSSAVGAASELALGMKEQNPFVHEMLEALVIRLTSDKSLEVRGNAAYGVGLLCEYASMDISAVYEPVLKALYELLSAADQKALAAEDDEATREIIDRAYANASGCVARMALKNSALVPLEQTVPALLAHLPLNTGFEEYNPIFELIMKLYQENSPVITNETPRIIEIFSAVFTKENDRIKLEKESTLGREENMERLKQFQTEEMKHKVIELLKYLNTTYNGIVAQNPVLAAVIA

From paper PMC13034042
